Where a chain is given by its changes, count along the chain named. No constants are given. Whether binding was seen depends on the method and setting. Binding seen in cells or lysates may run through a third protein. A result given as binding can be weak or reduced; the word gives no strength.
Columns and labels:
Test in all cases: pull-down
[1] = molecular target: T1, Vps74 Loop2 variant (166AAA168) (yeast) (UniProt Q06385)
T1 sequence: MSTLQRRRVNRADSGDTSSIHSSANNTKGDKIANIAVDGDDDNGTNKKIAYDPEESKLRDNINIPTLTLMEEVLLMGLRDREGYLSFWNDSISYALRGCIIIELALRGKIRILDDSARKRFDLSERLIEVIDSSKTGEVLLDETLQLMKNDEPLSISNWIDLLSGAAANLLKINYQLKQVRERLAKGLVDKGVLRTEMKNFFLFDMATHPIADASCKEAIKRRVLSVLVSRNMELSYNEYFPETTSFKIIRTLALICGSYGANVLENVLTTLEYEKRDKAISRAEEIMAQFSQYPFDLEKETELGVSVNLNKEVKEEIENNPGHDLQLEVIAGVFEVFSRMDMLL

[2] = molecular target: T2, Vps74 Loop1 variant (87AAAA90) (yeast) (UniProt Q06385)
T2 sequence: T1 sequence with F87A, W88A, N89A, D90A, A166E, A167T, A168W

[3] = molecular target: T3, Vps74 (bacterially expressed, as used in the in vitro mixing assays) (yeast) (UniProt Q06385)
T3 sequence: T1 sequence with A166E, A167T, A168W

Measured: binding

soluble domain of Sac1 (from UniProt P32368) (domain or fragment)
binds: all assays above
